# The list shows a part of the results.
# The chains behind the UniProt entries cited, without tags or fusion partners. Where a name states a change or a piece, a line headed by the entry shows the natural chain unless it says otherwise.
# UniProt P07237: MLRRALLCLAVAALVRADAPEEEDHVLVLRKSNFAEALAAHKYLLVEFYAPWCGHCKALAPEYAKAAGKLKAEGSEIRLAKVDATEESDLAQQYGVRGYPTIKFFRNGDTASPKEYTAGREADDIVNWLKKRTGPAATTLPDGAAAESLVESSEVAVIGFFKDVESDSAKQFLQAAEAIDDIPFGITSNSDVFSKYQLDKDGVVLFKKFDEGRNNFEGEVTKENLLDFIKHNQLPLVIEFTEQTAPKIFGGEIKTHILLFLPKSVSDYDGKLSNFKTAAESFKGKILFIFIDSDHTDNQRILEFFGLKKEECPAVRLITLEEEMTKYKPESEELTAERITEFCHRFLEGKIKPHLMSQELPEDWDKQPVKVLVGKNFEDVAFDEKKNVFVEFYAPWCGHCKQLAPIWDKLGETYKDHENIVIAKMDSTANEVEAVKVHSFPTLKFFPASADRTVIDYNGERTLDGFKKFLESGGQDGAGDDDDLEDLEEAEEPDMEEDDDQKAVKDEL
# UniProt O43929: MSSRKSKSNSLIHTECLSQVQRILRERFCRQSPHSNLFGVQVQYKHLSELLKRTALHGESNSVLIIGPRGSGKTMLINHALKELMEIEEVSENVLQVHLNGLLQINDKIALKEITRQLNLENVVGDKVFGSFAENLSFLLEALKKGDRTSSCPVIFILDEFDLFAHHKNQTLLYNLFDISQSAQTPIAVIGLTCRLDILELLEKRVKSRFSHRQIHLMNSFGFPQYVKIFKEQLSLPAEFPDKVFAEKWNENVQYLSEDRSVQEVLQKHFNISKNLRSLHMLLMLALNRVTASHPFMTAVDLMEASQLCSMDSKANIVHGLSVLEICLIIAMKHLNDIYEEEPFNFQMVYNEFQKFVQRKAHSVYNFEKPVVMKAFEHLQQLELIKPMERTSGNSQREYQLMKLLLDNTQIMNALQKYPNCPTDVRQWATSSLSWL
# UniProt Q9P0S3: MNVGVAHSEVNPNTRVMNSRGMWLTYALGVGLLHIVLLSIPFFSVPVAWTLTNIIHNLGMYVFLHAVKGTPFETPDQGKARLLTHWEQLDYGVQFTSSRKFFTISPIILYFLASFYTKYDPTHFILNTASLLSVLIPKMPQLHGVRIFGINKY
# UniProt Q9NPF4: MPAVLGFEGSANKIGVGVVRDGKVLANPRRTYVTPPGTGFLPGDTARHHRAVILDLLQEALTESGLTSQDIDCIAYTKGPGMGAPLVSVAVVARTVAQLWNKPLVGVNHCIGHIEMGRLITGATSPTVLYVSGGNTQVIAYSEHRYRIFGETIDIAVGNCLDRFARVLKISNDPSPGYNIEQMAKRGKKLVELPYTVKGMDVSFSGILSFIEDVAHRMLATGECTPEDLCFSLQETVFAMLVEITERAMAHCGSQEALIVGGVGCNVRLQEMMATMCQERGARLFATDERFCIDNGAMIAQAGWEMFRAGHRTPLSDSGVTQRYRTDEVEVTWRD
# UniProt Q9H999: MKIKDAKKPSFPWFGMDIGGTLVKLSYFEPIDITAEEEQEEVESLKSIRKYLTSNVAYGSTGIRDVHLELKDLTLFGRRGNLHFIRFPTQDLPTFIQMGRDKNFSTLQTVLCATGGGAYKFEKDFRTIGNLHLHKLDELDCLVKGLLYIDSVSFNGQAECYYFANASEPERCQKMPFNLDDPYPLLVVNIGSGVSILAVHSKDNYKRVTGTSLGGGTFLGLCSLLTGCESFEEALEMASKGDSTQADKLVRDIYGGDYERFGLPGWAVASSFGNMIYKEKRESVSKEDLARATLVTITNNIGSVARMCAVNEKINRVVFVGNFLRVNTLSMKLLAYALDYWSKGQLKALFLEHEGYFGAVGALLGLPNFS
# UniProt Q8TEW0: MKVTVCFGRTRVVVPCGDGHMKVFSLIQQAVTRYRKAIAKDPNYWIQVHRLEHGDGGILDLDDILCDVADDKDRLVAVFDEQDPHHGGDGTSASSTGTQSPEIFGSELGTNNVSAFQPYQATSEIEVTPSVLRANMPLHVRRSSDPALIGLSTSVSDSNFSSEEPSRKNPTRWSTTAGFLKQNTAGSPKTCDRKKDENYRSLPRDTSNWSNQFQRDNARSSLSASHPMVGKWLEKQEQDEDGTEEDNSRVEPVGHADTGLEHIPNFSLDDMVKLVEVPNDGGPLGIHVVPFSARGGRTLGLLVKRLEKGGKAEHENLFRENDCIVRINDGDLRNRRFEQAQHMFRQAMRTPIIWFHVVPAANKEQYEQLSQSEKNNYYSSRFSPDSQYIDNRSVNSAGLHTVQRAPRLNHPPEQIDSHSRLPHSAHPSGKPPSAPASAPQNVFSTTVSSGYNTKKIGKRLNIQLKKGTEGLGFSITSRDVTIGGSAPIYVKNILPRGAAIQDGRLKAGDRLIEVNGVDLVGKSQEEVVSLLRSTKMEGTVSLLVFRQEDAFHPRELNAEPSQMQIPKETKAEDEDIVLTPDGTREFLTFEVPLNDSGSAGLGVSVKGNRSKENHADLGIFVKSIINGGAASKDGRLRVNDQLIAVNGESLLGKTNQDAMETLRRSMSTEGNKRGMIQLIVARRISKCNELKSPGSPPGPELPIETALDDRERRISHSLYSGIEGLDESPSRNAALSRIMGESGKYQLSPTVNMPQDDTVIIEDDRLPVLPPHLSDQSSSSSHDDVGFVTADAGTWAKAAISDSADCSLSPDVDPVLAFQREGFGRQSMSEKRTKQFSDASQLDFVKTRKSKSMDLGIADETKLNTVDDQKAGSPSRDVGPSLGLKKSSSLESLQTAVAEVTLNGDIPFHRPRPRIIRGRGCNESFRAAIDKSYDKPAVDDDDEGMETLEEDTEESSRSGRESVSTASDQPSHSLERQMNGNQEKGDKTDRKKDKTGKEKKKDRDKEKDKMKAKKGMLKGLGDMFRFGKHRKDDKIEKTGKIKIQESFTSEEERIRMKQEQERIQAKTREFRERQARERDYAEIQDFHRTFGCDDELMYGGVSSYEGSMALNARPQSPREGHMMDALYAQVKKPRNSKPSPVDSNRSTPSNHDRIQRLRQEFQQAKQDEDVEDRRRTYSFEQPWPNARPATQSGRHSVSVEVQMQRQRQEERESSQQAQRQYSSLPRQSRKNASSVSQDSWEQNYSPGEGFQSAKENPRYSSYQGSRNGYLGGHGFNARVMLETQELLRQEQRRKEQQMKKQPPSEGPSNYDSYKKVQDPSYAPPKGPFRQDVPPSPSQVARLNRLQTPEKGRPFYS
# UniProt Q8WZ82: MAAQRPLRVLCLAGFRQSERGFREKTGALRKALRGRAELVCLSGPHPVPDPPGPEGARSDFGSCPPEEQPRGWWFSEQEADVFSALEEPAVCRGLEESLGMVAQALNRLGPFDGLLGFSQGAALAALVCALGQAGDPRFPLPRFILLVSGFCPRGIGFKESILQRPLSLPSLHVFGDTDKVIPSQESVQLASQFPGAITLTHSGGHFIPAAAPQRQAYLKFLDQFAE
# UniProt Q13153, whole entry, looked up: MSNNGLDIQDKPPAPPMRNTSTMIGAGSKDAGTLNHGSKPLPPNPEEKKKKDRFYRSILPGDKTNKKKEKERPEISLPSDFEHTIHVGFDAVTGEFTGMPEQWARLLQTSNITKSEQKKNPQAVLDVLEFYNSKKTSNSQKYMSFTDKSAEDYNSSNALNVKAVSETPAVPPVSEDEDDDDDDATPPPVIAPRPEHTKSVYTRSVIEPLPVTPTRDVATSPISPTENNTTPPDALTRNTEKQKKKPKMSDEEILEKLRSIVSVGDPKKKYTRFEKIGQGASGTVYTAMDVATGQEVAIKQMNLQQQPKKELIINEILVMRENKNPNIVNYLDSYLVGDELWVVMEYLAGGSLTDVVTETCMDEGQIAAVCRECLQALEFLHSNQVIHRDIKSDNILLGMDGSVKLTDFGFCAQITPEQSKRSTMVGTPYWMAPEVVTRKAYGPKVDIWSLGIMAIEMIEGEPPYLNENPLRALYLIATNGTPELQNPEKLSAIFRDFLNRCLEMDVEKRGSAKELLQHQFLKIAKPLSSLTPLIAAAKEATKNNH
# UniProt Q8TEW8: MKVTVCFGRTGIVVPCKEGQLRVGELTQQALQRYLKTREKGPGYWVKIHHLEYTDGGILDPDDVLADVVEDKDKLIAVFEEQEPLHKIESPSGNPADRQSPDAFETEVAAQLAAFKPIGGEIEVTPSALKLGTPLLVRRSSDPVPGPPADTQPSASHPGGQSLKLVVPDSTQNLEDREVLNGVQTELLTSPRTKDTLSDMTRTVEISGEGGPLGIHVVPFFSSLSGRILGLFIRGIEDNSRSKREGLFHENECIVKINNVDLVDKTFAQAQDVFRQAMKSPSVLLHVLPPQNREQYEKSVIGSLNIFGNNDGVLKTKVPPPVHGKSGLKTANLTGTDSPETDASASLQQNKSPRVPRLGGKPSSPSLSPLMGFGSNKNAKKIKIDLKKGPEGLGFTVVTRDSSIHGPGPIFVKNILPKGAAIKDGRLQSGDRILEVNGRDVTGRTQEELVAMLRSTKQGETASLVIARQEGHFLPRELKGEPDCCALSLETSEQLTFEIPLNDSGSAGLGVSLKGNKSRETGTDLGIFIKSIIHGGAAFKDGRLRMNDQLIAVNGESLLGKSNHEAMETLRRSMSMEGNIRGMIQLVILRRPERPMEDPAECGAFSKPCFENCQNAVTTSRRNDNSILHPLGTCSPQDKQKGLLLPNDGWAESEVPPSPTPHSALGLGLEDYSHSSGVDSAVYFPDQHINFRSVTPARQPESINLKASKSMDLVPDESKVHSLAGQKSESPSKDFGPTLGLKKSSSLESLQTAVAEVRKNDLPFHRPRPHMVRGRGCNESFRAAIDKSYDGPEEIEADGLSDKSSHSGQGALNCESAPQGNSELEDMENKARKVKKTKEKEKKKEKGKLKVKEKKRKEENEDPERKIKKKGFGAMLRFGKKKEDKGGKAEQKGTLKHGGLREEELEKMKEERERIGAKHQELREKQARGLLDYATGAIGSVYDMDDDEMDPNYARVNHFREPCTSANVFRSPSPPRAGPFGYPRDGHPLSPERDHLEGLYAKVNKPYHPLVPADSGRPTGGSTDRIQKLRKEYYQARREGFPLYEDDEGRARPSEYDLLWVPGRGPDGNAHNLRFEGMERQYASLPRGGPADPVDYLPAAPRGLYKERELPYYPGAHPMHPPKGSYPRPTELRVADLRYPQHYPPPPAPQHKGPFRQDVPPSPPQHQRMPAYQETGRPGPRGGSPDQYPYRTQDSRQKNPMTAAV
# UniProt Q9BTK6, whole entry, looked up: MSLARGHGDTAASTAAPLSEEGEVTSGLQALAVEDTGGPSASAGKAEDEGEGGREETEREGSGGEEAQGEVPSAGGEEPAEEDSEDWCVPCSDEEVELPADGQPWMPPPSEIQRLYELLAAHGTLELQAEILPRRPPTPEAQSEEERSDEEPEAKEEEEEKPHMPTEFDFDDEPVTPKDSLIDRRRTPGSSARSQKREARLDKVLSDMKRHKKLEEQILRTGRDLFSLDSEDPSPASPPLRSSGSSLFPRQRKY
# UniProt Q9BWT3: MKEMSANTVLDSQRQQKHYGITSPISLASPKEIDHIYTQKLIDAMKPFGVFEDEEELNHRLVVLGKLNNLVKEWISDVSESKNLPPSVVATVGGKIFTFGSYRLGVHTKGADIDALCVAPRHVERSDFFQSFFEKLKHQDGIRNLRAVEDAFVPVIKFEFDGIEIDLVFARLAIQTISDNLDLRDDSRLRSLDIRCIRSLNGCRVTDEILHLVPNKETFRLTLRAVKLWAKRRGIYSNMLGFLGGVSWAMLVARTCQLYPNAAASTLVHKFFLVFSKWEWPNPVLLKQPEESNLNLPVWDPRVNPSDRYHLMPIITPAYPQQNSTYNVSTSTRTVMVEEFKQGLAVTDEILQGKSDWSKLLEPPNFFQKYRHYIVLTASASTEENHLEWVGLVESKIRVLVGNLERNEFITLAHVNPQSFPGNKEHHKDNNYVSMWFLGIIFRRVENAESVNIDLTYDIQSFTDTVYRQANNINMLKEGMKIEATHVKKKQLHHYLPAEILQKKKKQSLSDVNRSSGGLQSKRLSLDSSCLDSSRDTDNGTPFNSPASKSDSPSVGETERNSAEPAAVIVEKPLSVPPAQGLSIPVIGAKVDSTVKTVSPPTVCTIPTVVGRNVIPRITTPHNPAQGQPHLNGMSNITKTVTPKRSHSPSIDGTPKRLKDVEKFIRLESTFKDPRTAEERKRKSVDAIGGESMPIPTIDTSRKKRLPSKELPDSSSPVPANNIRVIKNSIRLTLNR
# UniProt Q9UKK6: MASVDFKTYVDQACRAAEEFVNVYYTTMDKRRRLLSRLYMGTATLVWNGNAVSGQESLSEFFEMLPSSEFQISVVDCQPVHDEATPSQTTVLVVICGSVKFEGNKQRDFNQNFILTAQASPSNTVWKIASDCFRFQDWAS
# UniProt O43482, whole entry, looked up: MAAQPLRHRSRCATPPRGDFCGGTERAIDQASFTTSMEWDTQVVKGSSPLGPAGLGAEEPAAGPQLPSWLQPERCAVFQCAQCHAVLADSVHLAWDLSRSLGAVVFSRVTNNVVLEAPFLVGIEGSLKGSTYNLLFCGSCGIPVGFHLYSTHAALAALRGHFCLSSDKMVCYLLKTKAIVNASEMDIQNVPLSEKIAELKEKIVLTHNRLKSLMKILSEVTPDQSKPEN
# Assays:
# Assay in all cases: log2 fold change, soluble protein after heating vs DMSO (PISA); higher = thermal stabilisation; K562 lysate, 10 uM; active = over 0.2 and 3.5 SD of the protein, either way, in both replicates (recomputed)
# [1] = compound: C#Cc1cccc(Nc2ncnc3cc(OCCOC)c(OCCOC)cc23)c1 [erlotinib]
# In short: (§1)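 The values are log-two fold changes in thermal stability compared with solvent controls and come from duplicates. They were obtained by TMTpro 16plex LC-MS/MS, with channel sums equalised, on the supernatant after 21,000xg for 90 min. That supernatant came from crude K562 extract at 1 mg/mL protein treated with 10 μM compound for 30 min, heated for 3 min across 48°C-58°C, pooled and brought to 0.5% NP-40 at 4°C.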
# [2] = compound: C/C(=N\NC(=O)C1=CC(=CC=C1)S(=O)(=O)N2CCOCC2)/C3=C(C=CC(=C3)Cl)O
# In short: as §1
# [3] = compound: C1=CC(=CC=C1C2=NC3=C(N2)C=C(C=C3)C(=O)N)OC4=CC=C(C=C4)Cl
# In short: as §1
# [4] = compound: C1=CC2=C(C=CC(=C2)/C=C\3/C(=O)NC(=NCC4=CC=CS4)S3)N=C1
# In short: as §1
# [5] = compound: C1=CC2=NC=CN=C2C=C1/C=C/3\C(=O)NC(=O)S3
# In short: as §1
# [6] = compound: C1=CC=C(C=C1)C2=NC(=C(N2)C3=CC=NC=C3)C4=CC(=C(C=C4)Cl)O
# In short: as §1
# [7] = compound: C1=CC=C2C(=C1)C3=NNC4=CC=CC(=C43)C2=O
# In short: as §1
# [8] = compound: C1CCN(C1)C(=O)NC2=CC=CC(=C2)NC3=NC=C(C(=N3)NCCC4=CN=CN4)Br
# In short: as §1
# [9] = compound: C1CN(CCC1(CC2=CC=C(C=C2)Cl)N)C3=NC=NC4=C3C=CN4
# In short: as §1
# [10] = compound: C1COCCN1CCN2C3=CC=CC=C3N=C2NC(=O)C4=CC(=CC=C4)[N+](=O)[O-] [IRAK-1-4 Inhibitor I]
# In short: as §1
Target,log2 fold change [1],log2 fold change [2],log2 fold change [3],log2 fold change [4],log2 fold change [5],log2 fold change [6],log2 fold change [7],log2 fold change [8],log2 fold change [9],log2 fold change [10]
OCRL (UniProt Q01968),inactive: -0.057,inactive: -0.031,inactive: 0.04,inactive: 0.085,inactive: -0.012,inactive: 0.054,inactive: -0.1,inactive: 0.02,inactive: 0.055,inactive: 0.068
P4HB (UniProt P07237),inactive: -0.039,inactive: 0.022,inactive: 0.006,inactive: -0.009,inactive: -0.011,inactive: -0.002,inactive: 0.034,inactive: -0.001,inactive: -0.013,inactive: -0.025
OTULIN (UniProt Q96BN8),inactive: -0.021,inactive: -0.076,inactive: -0.003,inactive: 0.016,inactive: -0.002,inactive: -0.027,inactive: -0.031,inactive: 0.012,inactive: -0.027,inactive: 0.005
P4HA1 (UniProt P13674),inactive: -0.003,inactive: -0.024,inactive: -0.009,inactive: 0.008,inactive: -0.009,inactive: 0.008,inactive: -0.005,inactive: 0.023,inactive: 0.008,inactive: -0.003
NUS1 (UniProt Q96E22),inactive: 0.031,inactive: -0.04,inactive: 0.015,inactive: 0.112,inactive: -0.056,inactive: 0.013,inactive: -0.056,inactive: 0.002,inactive: 0.092,inactive: -0.008
OSBPL3 isoform 2 (UniProt Q9H4L5),inactive: 0.292,inactive: 0.206,inactive: 0.038,inactive: 0.079,inactive: -0.04,inactive: 0.189,inactive: 0.135,inactive: -0.001,inactive: -0.018,inactive: -0.183
ORC4 (UniProt O43929),inactive: 0.02,inactive: 0.059,inactive: -0.037,inactive: -0.042,inactive: -0.019,inactive: -0.035,inactive: 0.031,inactive: 0.052,inactive: 0.026,inactive: -0.011
P2RX4 isoform 2 (UniProt Q99571),inactive: 0.066,inactive: -0.056,inactive: 0.077,inactive: -0.154,inactive: 0.057,inactive: 0.066,inactive: -0.093,inactive: 0.035,inactive: 0.057,inactive: -0.029
PAFAH2 (UniProt Q99487),inactive: 0.005,inactive: -0.308,inactive: 0.048,inactive: 0.04,inactive: 0,inactive: 0.017,inactive: 0.08,inactive: 0.001,inactive: -0.064,inactive: 0.015
OTUD7B (UniProt Q6GQQ9),inactive: 0.028,inactive: -0.06,inactive: 0.075,inactive: -0.026,inactive: -0.017,inactive: -0.006,inactive: -0.076,inactive: -0.002,inactive: 0.032,inactive: -0.039
ORMDL1 (UniProt Q9P0S3),inactive: 0.166,inactive: 0.275,inactive: -0.078,inactive: -0.098,inactive: -0.175,inactive: -0.094,inactive: -0.038,,,inactive: -0.097
OSGEP (UniProt Q9NPF4),inactive: 0.012,inactive: -0.002,inactive: 0.041,inactive: -0.148,active: -0.236,inactive: 0.008,inactive: -0.058,inactive: 0.009,inactive: -0.028,inactive: -0.022
PAPSS1 (UniProt O43252),inactive: -0.021,inactive: -0.038,inactive: 0.003,inactive: -0.013,inactive: 0.003,inactive: 0.001,inactive: -0.03,inactive: -0.018,inactive: -0.001,inactive: 0.007
NUP62 (UniProt P37198),inactive: 0.014,inactive: -0.013,inactive: 0,inactive: -0.015,inactive: -0.048,inactive: -0.026,inactive: 0.006,inactive: 0.005,inactive: -0.004,inactive: 0.03
OS9 (UniProt Q13438),inactive: -0.057,inactive: 0.004,inactive: 0.02,inactive: -0.007,inactive: 0.005,inactive: -0.007,inactive: -0.001,inactive: 0.02,inactive: 0.02,inactive: 0.012
PANK3 (UniProt Q9H999),inactive: -0.208,inactive: 0.097,inactive: -0.046,inactive: 0.011,inactive: 0.051,inactive: -0.116,inactive: -0.112,inactive: -0.009,inactive: -0.052,inactive: 0.058

Target,log2 fold change [1],log2 fold change [2],log2 fold change [3],log2 fold change [4],log2 fold change [5],log2 fold change [6],log2 fold change [7],log2 fold change [8],log2 fold change [9],log2 fold change [10]
PARD3 (UniProt Q8TEW0),inactive: 0.1,inactive: -0.288,inactive: 0.051,inactive: -0.146,inactive: -0.029,inactive: 0.021,inactive: 0.007,inactive: 0.067,inactive: 0.017,inactive: 0.028
OVCA2 (UniProt Q8WZ82),inactive: 0.098,inactive: -0.31,inactive: -0.048,inactive: -0.095,inactive: -0.059,inactive: 0.089,inactive: -0.074,inactive: -0.072,inactive: -0.063,inactive: 0.005
PAK1 (UniProt Q13153),inactive: 0.043,inactive: 0.018,inactive: 0.01,inactive: -0.017,inactive: 0.01,inactive: -0.014,inactive: 0.018,inactive: 0.028,inactive: 0.041,inactive: -0.007
PALM3 (UniProt A6NDB9),inactive: -0.033,inactive: -0.044,inactive: -0.012,inactive: 0.006,inactive: 0.009,inactive: -0.016,inactive: -0.076,inactive: -0.002,inactive: 0.042,inactive: 0.004
PARD3B (UniProt Q8TEW8),inactive: 0.025,,inactive: -0.084,,,,,,,
PAGR1 (UniProt Q9BTK6),inactive: -0.257,inactive: -0.002,inactive: 0.029,inactive: -0.043,inactive: 0.024,inactive: -0.082,inactive: 0.005,inactive: 0.041,inactive: -0.01,inactive: 0.173
P3H3 (UniProt Q8IVL6),inactive: -0.209,inactive: 0.035,inactive: 0.006,inactive: 0.165,,,inactive: -0.141,,,
OSBP2 (UniProt Q969R2),inactive: -0.019,inactive: -0.254,inactive: 0.08,inactive: 0.032,inactive: -0.039,inactive: -0.077,inactive: -0.075,inactive: 0.037,inactive: -0.01,inactive: -0.061
PABPC1 (UniProt P11940),inactive: -0.002,inactive: 0.016,inactive: 0.006,inactive: 0.034,inactive: -0.011,inactive: 0.004,inactive: 0.048,inactive: 0.009,inactive: -0.059,inactive: -0.011
PANK1 (UniProt Q8TE04),inactive: -0.003,inactive: -0.048,inactive: 0.033,inactive: 0.026,inactive: 0.098,inactive: 0.015,inactive: -0.069,inactive: -0.036,inactive: 0.054,inactive: -0.061
PAPOLG (UniProt Q9BWT3),inactive: 0,inactive: -0.068,inactive: -0.092,inactive: 0.035,,inactive: 0.055,inactive: 0.041,inactive: -0.086,inactive: 0.104,inactive: 0.136
NXT1 (UniProt Q9UKK6),inactive: -0.027,inactive: -0.029,inactive: 0.006,inactive: 0.046,inactive: 0.133,inactive: 0.029,inactive: -0.05,,,inactive: 0.085
OIP5 (UniProt O43482),inactive: 0.015,inactive: -0.073,inactive: -0.012,inactive: -0.005,inactive: -0.072,inactive: 0.059,inactive: 0.064,inactive: 0.032,inactive: 0.03,inactive: 0.044
NUP214 (UniProt P35658),inactive: -0.013,inactive: -0.031,inactive: 0.019,inactive: -0.001,inactive: 0.008,inactive: -0.075,inactive: -0.029,inactive: -0.017,inactive: -0.015,inactive: 0.035
PAK4 (UniProt O96013),inactive: 0,inactive: -0.076,inactive: 0.072,inactive: 0.052,inactive: -0.006,inactive: -0.005,inactive: 0.335,inactive: 0.469,inactive: 0.124,inactive: -0.044
NVL (UniProt O15381),inactive: -0.008,inactive: -0.024,inactive: 0.015,inactive: 0.04,inactive: -0.097,inactive: 0.058,inactive: 0.097,,,inactive: 0.026
